Assay results published in patent US20020164716A1.
Results are given in words; binding and its absence hold for the method and conditions named. For some assays here: Binding seen in cells or lysates may run through a third protein. Some binding calls cover weakened binding; strength is not graded here. For some assays here: Sequences can lack the tags named with a protein. Each block holds one binder with its values, some of them ahead of it.

Sequences of proteins named here, by UniProt entry; tags and fusion partners are left off. Residues count along the entry.
UniProt P19438, residues 355-442: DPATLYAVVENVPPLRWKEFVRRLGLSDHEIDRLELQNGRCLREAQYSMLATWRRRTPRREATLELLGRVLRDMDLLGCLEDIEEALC

Assays:
[1] = biological target: T1, Drosophila transcription factor bicoid (Drosophila) (UniProt P09081); experiment: yeast interaction trap, panel of baits
T1 sequence (looked up): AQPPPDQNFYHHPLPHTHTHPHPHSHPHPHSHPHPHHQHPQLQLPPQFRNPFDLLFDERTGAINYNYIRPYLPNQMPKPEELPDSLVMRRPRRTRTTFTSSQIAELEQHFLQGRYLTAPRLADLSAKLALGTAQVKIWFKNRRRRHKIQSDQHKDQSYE

[2] = biological target: TNF-R1-DD expressed as a GST fusion protein (UniProt P19438); experiment: pull-down on glutathione beads, Western blot with anti-MBP antibody

binding [1]: binds
B1: TNF-R1-DD ligand protein encoded by clone 1TU (ligand, not shown: large carriers)
chain: SLKANIPEVEAVLNTDRSLVCDGKRGLLTRLLQVMKKEPAESSFRFWQARAVESFLRGTTSYADQMFLLKRGLLEHILYCIVDSECKSRDVLQSYFDLLGELMKFNVDAFKRFNKYINTDAKFQVFLKQINSSLVDSNMLVRCVTLSLDRFENQVDMKVAEVLSECRLLAYISQVPTQMSFLFRLINIIHVQTLTQENVSCLNTSLVILMLARRKERLPLYLRLLQRMEHSKKYPGFLLNNFHNLLRFWQQHYLHKDKDSTCLENSSCISFSYWKETVSILLNPDRQSPSALVSYIEEPYMDIDRDFTEE

binding [2]: binds
B2: MBP fusion protein containing 1TU (protein, not shown: large carriers)
chain: B1 chain
